Test results: PubChem BioAssay AID2685 (National Center for Advancing Translational Sciences (NCATS), 2010)
This is one part of the list. Further columns of the screen follow, without active or inactive calls. The list favours compounds with an active or inconclusive main result. Words in brackets tell the shape of the fitted curve; partial curves, single points and poor fits give uncertain potencies.

Test: qHTS Assay for Lipid Storage Modulators in Drosophila S3 Cells;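 for cell number change: cells counted by Cell Tracker Red CMTPX staining in the red channel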
Settings: BODIPY lipid droplet fluorescence, 18-24 h; for cell number change: measured here: cell count max response, cells fed with added oleic acid
Procedure, shortened: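 Laser-scanning cytometry quantifies lipid droplet accumulation (500–530 nm total intensity; droplet/cell object ratio) in oleic acid-fed (400 uM added) Drosophila S3 cells treated with a concentration series. 20 uM Triacsin C defined 100% inhibition.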

[1] = measured here: lipid fluorescence (Fed channel) AC50, cells fed with added oleic acid
[2] = measured here: cell number channel AC50, cells fed with added oleic acid

| SMILES | cell number change | AC50 [1] | AC50 [2] |
| --- | --- | --- | --- |
| O=C(CCC(=O)c1ccc(F)cc1)Nc1cccnc1 | 14% | 0.517 µM [rising, full curve, poor fit] | – |
| O=C(NCc1ccccn1)C1CCCN(S(=O)(=O)c2cccc3nsnc23)C1 (stereo unspecified) | 14.1% | 0.184 µM [rising, full curve, poor fit] | – |
| COc1cc(/C=N/NC(=O)c2ccc(C)nc2)cc([N+](=O)[O-])c1O | 11.1% | 0.13 µM [falling, full curve, poor fit] | – |
| Cc1cc(Br)cc2cn[nH]c12 | -1.19% | – | 4.61 µM [rising, partial curve] |
| N#C/C(=C\c1ccc(N2CCCCC2)o1)C(=O)Nc1cccc(Br)c1 | -52.5% | 29.1 µM [falling, single point] | 3.66 µM [falling, partial curve] |
| O=C(CSc1ccccc1)NC1CCCCCC1 | -27.6% | 28.2 µM [falling, single point] | – |
| CC(C)c1nc2cc(C(=O)N3CCN(c4cnccn4)CC3)ccc2o1 | -40.5% | 23.1 µM [falling, partial curve, poor fit] | 29.1 µM [falling, single point] |
| O=C1C=C(NCCOC23CC4CC(CC(C4)C2)C3)C2(CCCCC2)O1 | -45% | – | 29.1 µM [falling, single point] |
| COC(=O)c1cc(C)sc1NC(=O)CCc1ccccc1 | 9.97% | 29.1 µM [falling, single point] | – |
| O=C(O)c1cccc(-n2cccc2/C=N/O)c1 | -16.3% | 0.00461 µM [falling, full curve, poor fit] | – |
| CNc1ccccc1C(C)(C)c1cc(-c2cccc([N+](=O)[O-])c2)no1 | -21.5% | 0.58 µM [falling, single point] | – |
| Cc1ccc2nc(NC(=O)CN3CCN(c4ccccn4)CC3)sc2c1 | 36.2% | – | 11.6 µM [rising, partial curve, poor fit] |
| CCN1CCN(C(=O)CN(c2cc(OC)ccc2OC)S(C)(=O)=O)CC1 | 4.67% | 6.51 µM [falling, single point] | – |
| CC1CCCN(CC(O)COc2ccc(S(=O)(=O)N3CCCC3)cc2[N+](=O)[O-])C1 (stereo unspecified) | -8.41% | – | – |
| COc1ccc2cc(C(=O)O)ccc2c1 | 161% | 6.51 µM [falling, single point] | – |
| O=S(=O)(c1cccc(S(=O)(=O)N2CCC(N3CCCCC3)CC2)c1)N1CCOCC1 | 3.23% | – | – |
| O=C1CCCc2nc(N3CCN(C(c4ccccc4)c4ccccc4)CC3)ncc21 | -3.56% | – | – |
| CCOc1ccccc1NC(=O)CCCCCN1C(=O)[C@@H]2Cc3ccccc3CN2C1=O | 0.236% | – | – |
| O=C(OCC(=O)N1CCN(C(=O)c2ccco2)CC1)c1sc2ccccc2c1Cl | -19% | 4.61 µM [falling, full curve] | – |
| CCc1cc(C(=O)NCC(c2ccc(OC)cc2)N2CCOCC2)sc1C (stereo unspecified) | 91.5% | – | 8.2 µM [rising, partial curve] |

| SMILES | cell number change | AC50 [1] | AC50 [2] |
| --- | --- | --- | --- |
| O=C(CNC(=O)c1ccccc1F)N/N=C/c1cccnc1 | -27.2% | – | – |
| Cc1ccsc1/C=N/n1c(-c2cc(-c3ccccc3)n[nH]2)n[nH]c1=S | -52.5% | 16.4 µM [falling, single point] | 14.6 µM [falling, partial curve, poor fit] |
| Cc1ccccc1Cn1c(=O)n(CCC(=O)NCc2ccc3c(c2)OCO3)c(=O)c2ccccc21 | 17.4% | 29.1 µM [rising, single point] | – |
| Cc1ccc(C)c(S(=O)(=O)N2CC(=O)Nc3ccccc32)c1 | 19.2% | 3.66 µM [rising, single point] | – |
| CC(=O)NC1=NC(=O)/C(=C/c2cn(C(C)=O)nc2-c2ccccc2)S1 | 22.8% | 29.1 µM [rising, single point] | – |
| Cc1ccc(S(=O)(=O)c2c[nH]c3cc4c(cc3c2=O)OCO4)cc1 | 30.8% | 2.06 µM [rising, partial curve] | 1.64 µM [rising, full curve] |
| Cc1cc(C)n2nc(C(=O)OCC(=O)Nc3ccc4c(c3)OCO4)nc2n1 | -17.9% | – | – |
| NS(=O)(=O)c1ccc(CCNc2nc3c(-c4cccc(F)c4)nnn3c3ccccc23)cc1 | 7.91% | 3.26 µM [falling, single point] | – |
| CN(C(=O)CN1CCN(c2ccccc2F)CC1)C1CCCc2ccccc21 (stereo unspecified) | 7.69% | 6.51 µM [rising, single point] | – |
| CC(=O)c1ccccc1NC(=O)COC(=O)c1cc2ccccc2[nH]1 | -38.7% | – | 18.4 µM [falling, single point] |
| Cc1ccc2oc(=O)n(Cc3ccc(OC(C)C)cc3)c2c1 | 10.5% | – | – |
| CCOC(=O)c1c(NC(=O)c2nn(C)cc2[N+](=O)[O-])sc(C)c1C | 30% | – | 32.6 µM [rising, single point] |
| O=C(NC1=NCCS1)C1CCN(S(=O)(=O)c2ccccc2C(F)(F)F)CC1 | 0.752% | 13 µM [falling, partial curve] | – |
| CCOC(=O)CC(C)(C)/C(C)=N/Nc1ccc([N+](=O)[O-])cc1[N+](=O)[O-] | -44.1% | 0.82 µM [rising, full curve] | 0.82 µM [rising, full curve] |
| COc1cc([N+](=O)[O-])cc2sc(NC(=O)c3c(F)cccc3F)nc12 | -26.3% | 2.59 µM [falling, single point] | – |
| COc1ccccc1C(=O)Nc1onc(C)c1C#N | 22.2% | 4.61 µM [rising, full curve, poor fit] | – |
| Cc1ccc(S(=O)(=O)n2ccc3c(OCCOCCSCC(NC(=O)OC(C)(C)C)C(=O)O)cccc32)cc1 (stereo unspecified) | -24.1% | – | – |
| CCCCC(=O)N(c1ccc(C(=O)O)cc1)c1nc(-c2ccc(Cl)cc2)c(CC)s1 | -55.7% | 1.03 µM [falling, partial curve] | 0.651 µM [falling, full curve, poor fit] |
| COc1ccc(OC)c(Nc2nc(-c3ccncc3)nc3ccccc23)c1 | 4.5% | 11.6 µM [falling, single point] | 1.46 µM [rising, full curve] |
| N#Cc1ccc(/C=C\c2nccc3c2[nH]c2ccccc23)cc1 | -51.5% | 9.2 µM [falling, partial curve] | 6.51 µM [falling, full curve] |

Quoted from the listing.
Entry for `Cc1ccc(C)c(S(=O)(=O)N2CC(=O)Nc3ccccc32)c1` under AC50 [1]: 3.66 µM [rising, single point]
Entry for `Cc1ccc(S(=O)(=O)n2ccc3c(OCCOCCSCC(NC(=O)OC(C)(C)C)C(=O)O)cccc32)cc1` (stereo unspecified) under cell number change: -24.1%

(list continues)

| SMILES | cell number change | AC50 [1] | AC50 [2] |
| --- | --- | --- | --- |
| N#CCCN(C(=O)CSc1ccc2c(c1)OCCO2)c1ccccc1 | 19.8% | 0.00461 µM [falling, full curve, poor fit] | – |
| CC(C(=O)OCC(=O)c1ccc([N+](=O)[O-])cc1)N1C(=O)C2C3C=CC(C3)C2C1=O (stereo unspecified) | -16.4% | – | – |
| C/C(=N\OC(=O)NC(C)C)c1sc(-c2ccccc2)nc1C | – | 29.1 µM [falling, single point] | 0.82 µM [rising, partial curve, poor fit] |
| COc1cccc(N2CCN(CC(=O)NCc3ccccc3)CC2)c1 | 5.07% | 20.6 µM [falling, single point] | – |
| C[C@@H](C(=O)NCc1ccccc1)[C@@H]1C[C@@]1(C)[C@@H](NC(=O)OCc1ccccc1)c1ccccc1 | -1.42% | – | – |
| O=S(=O)(Cc1cc(Sc2ccc(Cl)cc2)nc(-c2ccccc2)n1)c1ccccc1 | – | 9.2 µM [rising, partial curve, poor fit] | 0.082 µM [rising, partial curve, poor fit] |
| CCOc1ccc2[nH]c(C)c(CN(C)C)c(=O)c2c1 | 4.13% | 7.31 µM [falling, partial curve] | – |
| CCOC(=O)C1CCN(C(=O)/C(=C/c2ccccc2)NC(=O)c2ccccc2)CC1 | 4.69% | 5.8 µM [falling, single point] | – |
| COc1cccc(COc2cc3ccccc3nc2C)c1 | -43.3% | 18.4 µM [falling, partial curve] | 10.3 µM [falling, partial curve] |
| CCC(Cc1ccccc1)NS(=O)(=O)c1ccc2c(c1)NC(=O)CS2 (stereo unspecified) | -44.5% | 29.1 µM [falling, single point] | 29.1 µM [falling, single point] |
| Cc1ccc(O)c(Nc2c3ccccc3nc3ccccc23)c1 | -35.5% | – | 29.1 µM [falling, single point] |
| CC(C)C[C@H](NC(=O)c1[nH]cnc1C(=O)N[C@@H](C)C(=O)OC(C)(C)C)C(=O)OC(C)(C)C | -40.9% | – | 29.1 µM [falling, single point] |
| Cc1nn(C(C)C)c(C)c1CN1CCCC(C(=O)c2cccc(OC(C)C)c2)C1 (stereo unspecified) | 13.7% | 2.06 µM [rising, partial curve, poor fit] | – |
| O=C(Nc1cccc(Cl)c1)N1CCCCCC1 | 7.97% | 0.651 µM [rising, single point] | – |
| CCOC(=O)C(=CN(CCc1ccccc1)CC(=O)OC)C(=O)OCC | – | 18.4 µM [rising, partial curve, poor fit] | – |
| COc1ccc(C2c3sc(=O)[nH]c3SC3C(=O)N(c4ccccc4)C(=O)C32)cc1 (stereo unspecified) | – | 3.26 µM [rising, partial curve] | – |
| CCOC(=O)c1ccc(NC(=O)CCNC(=O)c2ccc([N+](=O)[O-])cc2)cc1 | 45.5% | 9.2 µM [rising, partial curve] | 1.64 µM [rising, full curve] |
| COc1ccc(NC(=O)C2CC(=O)n3cnnc3S2)cc1 (stereo unspecified) | -41% | 29.1 µM [falling, single point] | 0.731 µM [falling, full curve] |
